# Data source: PubChem BioAssay AID504791 (Drosophila RNAi Screening Center, 2011)
# Aim: 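Factors in Argonaute-based small RNA production and activity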 (primary screen)
# System: Drosophila S2-derived reporter cells
# Reagents: long dsRNA against Drosophila genes, about 150-250 ng dsRNA per well (siRNA assay); about 80-120 ng (miRNA assay)
# Time to read-out: about 5 days (siRNA assay); about 4 days (miRNA assay)
# Challenge: copper sulfate induction of reporters: 25 µM (siRNA assay); 200 mM stated (miRNA assay), 1-2 days before reading
# Measurement: 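Dual luciferase assay: Renilla to firefly signal ratio in each well, scaled to the mean ratio of its plate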
# Direction: siRNA reporter hit score: higher = 3 marks a strong hit with raised ratio; -3 a strong hit with lowered ratio
# Rule for the call: 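a well was a first-pass pick when its plate-scaled ratio rose above 1.5 (siRNA assay) or 1.6 (miRNA assay), or dropped below 0.6; a gene counted only if two separate dsRNAs agreed on retest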
# The deposit covers about 23,000 reagents; below is an unselected part of those that have a named target and a result. Over the whole deposit, 199 (0.86%) were called active. 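Plate-scaled ratios behind the calls are not deposited; printed light signals are raw; many rows marked increased or decreased are still called inactive.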 Further read-outs or replicates are left out here.
gene knocked down,amplicon,siRNA reporter hit score,miRNA reporter change,"stable assay Renilla, run 1 (luminescence)",call
Or85d (GeneID 41011),DRSC16767,,,6615,inactive
cno (GeneID 40620),DRSC12054,,,5900,inactive
cno (GeneID 40620),DRSC12374,3,,6607,inactive
cno (GeneID 40620),DRSC22980,,,5219,inactive
cno (GeneID 40620),DRSC28027,,reporter ratio lowered past the hit cutoff,,inactive
Cyp4ac1 (GeneID 33754),DRSC03302,,,11327,inactive
CG31082 (retired record) (GeneID 318587),DRSC13775,,,3635,inactive
Ir25a (GeneID 33683),DRSC00462,,,7331,inactive
Pvf3 (GeneID 33995),DRSC02284,,,7434,inactive
Pvf3 (GeneID 33995),DRSC02285,,,6968,inactive
Pvf3 (GeneID 33995),DRSC02286,,,6918,inactive
Pvf3 (GeneID 33995),DRSC02751,,,7456,inactive
CG9101 (GeneID 32452),DRSC20152,,,5958,inactive
zfh2 (GeneID 43795),DRSC17178,,,8090,inactive
Btk (GeneID 34132),DRSC02008,,,8097,inactive
Btk (GeneID 34132),DRSC02666,,,10046,inactive
Btk (GeneID 34132),DRSC22427,,,4911,inactive
Pld (GeneID 35554),DRSC04854,,,1.15e5,inactive
PIG-B (GeneID 38446),DRSC08216,,,4359,inactive
PIG-B (GeneID 38446),DRSC22598,,,3528,inactive
CG13458 (GeneID 39646),DRSC10005,,,7198,inactive
STUB1 (GeneID 34433),DRSC03282,,,7802,inactive
Pde9 (GeneID 32233),DRSC19746,,,5716,inactive
Pde9 (GeneID 32233),DRSC19874,,reporter ratio raised past the hit cutoff,6586,inactive
Pde9 (GeneID 32233),DRSC19875,,,6532,inactive
Pde9 (GeneID 32233),DRSC19876,,,5575,inactive
CG30046 (GeneID 36334),DRSC06691,,,5990,inactive
TpnC73F (GeneID 39916),DRSC11307,,,6932,inactive
Ac78C (GeneID 40333),DRSC11467,,,7250,inactive
Ac78C (GeneID 40333),DRSC11602,,,7030,inactive
Ac78C (GeneID 40333),DRSC11619,,,7471,inactive
CG12419 (retired record) (GeneID 41218),DRSC14513,,,6522,inactive
CG5800 (GeneID 32742),DRSC19962,,,5859,inactive
RpL27A (GeneID 33654),DRSC00781,,,8117,inactive
CG33453 (GeneID 2768851),DRSC05782,,,5206,inactive
Tsp47F (GeneID 36230),DRSC07325,,,6808,inactive
yellow-f (GeneID 41595),DRSC15348,,,8285,inactive
blw (GeneID 37617),DRSC04675,,,4219,inactive
CG11018 (GeneID 37259),DRSC06024,,,8447,inactive
Tsp42Ei (GeneID 35618),DRSC06189,,,6188,inactive
sca (GeneID 36411),DRSC07677,,,5723,inactive
CG32718 (GeneID 318168),DRSC17538,,,4976,inactive
DIP-beta (GeneID 33125),DRSC20461,,,3023,inactive
DIP-beta (GeneID 33125),DRSC20489,,,5215,inactive
DIP-beta (GeneID 33125),DRSC20490,,,5555,inactive
DIP-beta (GeneID 33125),DRSC20505,,,5627,inactive
cGlr1 (GeneID 36744),DRSC06270,,,6386,inactive
LysRS (GeneID 31904),DRSC17824,,,7870,inactive
CG12986 (GeneID 32759),DRSC19506,,,5523,inactive
CG32655 (GeneID 318143),DRSC18925,,,5655,inactive
Ptr (GeneID 35546),DRSC04852,,,6803,inactive
Ptr (GeneID 35546),DRSC21517,,,8527,inactive
CG31343 (GeneID 326133),DRSC15887,,,10976,inactive
CG5854 (GeneID 42831),DRSC15894,,,6467,inactive
CG9896 (GeneID 37652),DRSC03962,,,6510,inactive
CG9896 (GeneID 37652),DRSC04594,,,5567,inactive
Traf-like (GeneID 32611),DRSC19894,,,8971,inactive
